Results are given in words; binding and its absence hold for the method and conditions named. Binding seen in cells or lysates may run through a third protein. Binding can be weak; no strength is given. Sequences can lack the tags named with a protein.
Target: T1, myc-tagged 14-3-3η (UniProt Q04917)
T1 sequence: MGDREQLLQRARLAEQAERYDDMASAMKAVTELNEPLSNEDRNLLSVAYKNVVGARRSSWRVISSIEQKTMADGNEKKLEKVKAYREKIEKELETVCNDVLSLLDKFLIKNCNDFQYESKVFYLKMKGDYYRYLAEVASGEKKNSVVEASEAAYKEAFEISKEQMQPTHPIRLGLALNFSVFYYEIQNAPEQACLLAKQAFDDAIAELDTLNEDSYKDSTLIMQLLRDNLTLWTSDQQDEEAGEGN
Experiment: co-IP; COS cells transfected; lysates immunoprecipitated with 9E10 anti-myc antibody, 12 h at 4°C; Western blot with antibodies against Flag, Myc or Kif3A

For “endogenous Kif3A (COS cells) (African green monkey (endogenous in COS))”, the binding was “binds”.

From article PMC2579577
